Data taken from publication doi:10.1101/2024.03.26.586525 (bioRxiv, 2024).
Results are given in words; binding and its absence hold for the method and conditions named.

Biological target: Acs1 R264W (acs1^R264W) (S. cerevisiae) (UniProt Q01574)
Assay: cryo-electron tomography

binding: no binding
B1: Acs1 R264W (acs1^R264W) (enzyme, UniProt Q01574 1-713)
chain: MSPSAVQSSKLEEQSSEIDKLKAKMSQSAATAQQKKEHEYEHLTSVKIVPQRPISDRLQPAIATHYSPHLDGLQDYQRLHKESIEDPAKFFGSKATQFLNWSKPFDKVFIPDPKTGRPSFQNNAWFLNGQLNACYNCVDRHALKTPNKKAIIFEGDEPGQGYSITYKELLEEVCQVAQVLTYSMGVRKGDTVAVYMPMVPEAIITLLAISRIGAIHSVVFAGFSSNSLRDRINDGDSKVVITTDESNRGGKVIETKRIVDDALWETPGVRHVLVYRKTNNPSVAFHAPRDLDWATEKKKYKTYYPCTPVDSEDPLFLLYTSGSTGAPKGVQHSTAGYLLGALLTMRYTFDTHQEDVFFTAGDIGWITGHTYVVYGPLLYGCATLVFEGTPAYPNYSRYWDIIDEHKVTQFYVAPTALRLLKRAGDSYIENHSLKSLRCLGSVGEPIAAEVWEWYSEKIGKNEIPIVDTYWQTESGSHLVTPLAGGVTPMKPGSASFPFFGIDAVVLDPNTGEELNTSHAEGVLAVKAAWPSFARTIWKNHDRYLDTYLNPYPGYYFTGDGAAKDKDGYIWILGRVDDVVNVSGHRLSTAEIEAAIIEDPIVAECAVVGFNDDLTGQAVAAFVVLKNKSSWSTATDDELQDIKKHLVFTVRKDIGPFAAPKLIILVDDLPKTRSGKIMRRILRKILAGESDQLGDVSTLSNPGIVRHLIDSVKL
